## Library screening results

By UniProt entry, the sequences of proteins in these tests, tags left out.
UniProt E9BF75, entry or part of it: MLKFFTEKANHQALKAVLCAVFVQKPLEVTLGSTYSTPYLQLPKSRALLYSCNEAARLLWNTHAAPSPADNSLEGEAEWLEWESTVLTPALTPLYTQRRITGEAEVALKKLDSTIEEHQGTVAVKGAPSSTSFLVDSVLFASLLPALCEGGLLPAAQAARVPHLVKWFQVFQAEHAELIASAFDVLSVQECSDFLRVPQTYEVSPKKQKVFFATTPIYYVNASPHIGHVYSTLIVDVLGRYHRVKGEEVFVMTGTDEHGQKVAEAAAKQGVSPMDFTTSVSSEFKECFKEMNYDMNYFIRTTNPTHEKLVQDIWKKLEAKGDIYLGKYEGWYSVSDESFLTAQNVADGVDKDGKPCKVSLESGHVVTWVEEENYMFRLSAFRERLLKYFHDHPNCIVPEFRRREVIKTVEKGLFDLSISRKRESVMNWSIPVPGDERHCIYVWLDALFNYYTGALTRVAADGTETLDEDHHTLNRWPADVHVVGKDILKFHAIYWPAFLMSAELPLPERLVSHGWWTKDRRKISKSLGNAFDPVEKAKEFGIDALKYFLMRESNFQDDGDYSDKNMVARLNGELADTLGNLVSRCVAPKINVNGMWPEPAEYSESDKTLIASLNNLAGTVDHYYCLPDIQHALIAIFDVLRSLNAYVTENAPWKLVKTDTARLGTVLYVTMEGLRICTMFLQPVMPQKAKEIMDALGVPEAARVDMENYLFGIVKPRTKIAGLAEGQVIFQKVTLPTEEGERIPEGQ

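Methionyl-tRNA synthetase (putative), Leishmania donovani (UniProt E9BF75). Primary screen of methionyl-tRNA synthetase; the read-out is not stated. The test concentration is not given. The values are filed as inhibition. Size under these conditions: about 68,000 compounds, about 24 of them at 50% or above in at least one test.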

Results are percentages, as filed.
The record does not define 0% and 100%; most values in the screen are far below 50% and negative numbers occur (in some assays of this library far below -100).
The compounds are a random part of those screened.

Compound: Cc1nc(CN2CCN(C(=O)COc3c(C)ccc(C)c3C)CC2)no1
inhibition: 9.253%

Compound: COCC(C)NC(=O)CN1CCC(CO)CC1 (stereo not given)
inhibition: 9.763%

Compound: Cn1nnc2c1CCN(C(=O)C1CCC1)C2COCCN1CCCC1 (stereo not given)
inhibition: 12.59%

Compound: COCCN(Cc1ccco1)Cc1nc(-c2ccc(C)c(F)c2)no1
inhibition: 10.47%

Compound: O=C(c1cnc(Nc2ccccc2)nc1)N1CCS(=O)(=O)CC1
inhibition: 4.935%

Compound: CCOCC1CN(S(=O)(=O)C2CC2)Cc2ncn(CC3CC3)c21 (stereo not given)
inhibition: 8.629%

Compound: COc1ccc(C(=O)C2CCCN(c3cnccn3)C2)c(C)c1 (stereo not given)
inhibition: 12.75%

Compound: CN(CCOc1cccc(S(C)(=O)=O)c1)CC(F)F
inhibition: 13.47%

Compound: COc1ncccc1NC(=O)N1CCOCC1C (stereo not given)
inhibition: 8.052%

Compound: Nc1cc(-c2cccs2)nn(CC(=O)N2CCc3ccccc32)c1=O
inhibition: 6.962%

Compound: Cc1csc(CCNC(=O)Nc2cc(C(F)(F)F)c[nH]c2=O)n1
inhibition: 12.75%

Compound: CCN(Cc1ccc2c(c1)OCO2)Cc1nc2c(cnn2C)c(=O)[nH]1
inhibition: 16.57%

Compound: COc1ccccc1N1CCN(CC(=O)NC(C)c2ccco2)CC1 (stereo not given)
inhibition: 26.05%

Compound: Cc1csc(CNc2cnn(CC(C)C)c2)n1
inhibition: 6.211%

Compound: NC(c1ccc(Cl)cc1)c1cccs1 (stereo not given)
inhibition: 10.99%

Compound: Cc1noc(C)c1CN1CC[C@H]2OCC[C@@H](C(=O)NCC3CC3)[C@H]2C1
inhibition: 14.81%

Compound: CCOc1cc(F)ccc1NC(=O)NCC(c1cnn(C)c1)N(C)C (stereo not given)
inhibition: 8.011%

Compound: Cc1nc(C)n(CC2CCCN(Cc3nnc(C4CC4)o3)C2)n1 (stereo not given)
inhibition: 14.32%

Compound: CCc1cnc(C)nc1NCCC(=O)N1CCC(C)CC1
inhibition: 8.065%

Compound: CC(C)N1CCCC2(CCN(C(=O)CCCn3ccnc3)C2)C1=O (stereo not given)
inhibition: 14.81%

Compound: CC1(NC(=O)Cc2cccs2)CCS(=O)(=O)C1 (stereo not given)
inhibition: 12.57%

Compound: COc1cccc(C(=O)N2C[C@@H](c3ccccc3)[C@@H]3NCCCC[C@@H]32)c1
inhibition: 14.19%

Compound: O=C(CNc1cc(F)ccc1OCC1CCCO1)N1CCOCC1 (stereo not given)
inhibition: 15.34%

Compound: Cc1ccc(CNCC2Cn3nnc(-c4cccc(F)c4)c3CO2)o1 (stereo not given)
inhibition: 17.78%

Compound: CC(=O)N1CCN(CCNS(=O)(=O)c2cccc(F)c2)CC1
inhibition: 20.28%

Compound: CCc1cnc(CN(C(C)=O)C2CCN(CCc3ccccc3)C2)o1 (stereo not given)
inhibition: 1.955%

Compound: Cc1nnc(CN(C)CC(=O)NCCc2ccc(F)cc2)n1C
inhibition: 6.504%

Compound: CCCc1nc(C)c(C(=O)NCCNc2ncccn2)s1
inhibition: 17.71%

Compound: CN(C(=O)CNc1ccc(C#N)cc1)C1CCN(c2ccccn2)CC1
inhibition: 15.19%

Compound: COc1ccc(C(=O)C2CCCN(Cc3cc(C)n[nH]3)C2)c(OC)c1 (stereo not given)
inhibition: 11.93%

Compound: O=C(NCc1ccccc1CN1CCCCC1)Nc1nncs1
inhibition: 19.83%

Compound: Cc1ccc2c(n1)N(CCn1cccn1)CCN(C(=O)NC1CC1)C2
inhibition: 12.27%

Compound: c1cncc(CO[C@H]2CO[C@@]3(CCN(Cc4ccoc4)C3)C2)c1
inhibition: 9.544%

Compound: CCN(Cc1ccoc1)C(C(N)=O)c1ccc(C#N)cc1 (stereo not given)
inhibition: 12.5%

Compound: O=C(Nc1cccnc1)[C@H]1C[C@@H]2CN(Cc3ccc(F)cc3)C[C@H]1O2
inhibition: 10.45%

Compound: Cc1ccoc1C(=O)N1CCOC2(CCCC2)C1
inhibition: 6.452%

Compound: COCCC1(CO)CCCN(Cc2ccc(F)c(C)c2)C1 (stereo not given)
inhibition: 13.01%

Compound: OC1CCN(C2CCN(Cc3cnc(-c4cccs4)nc3)CC2)CC1
inhibition: 11.87%

Compound: c1coc(-c2nnc(CN3CCCC3Cn3cncn3)o2)c1 (stereo not given)
inhibition: 17.61%

Compound: CCc1ccc(C(COC)NC(=O)c2ccsc2)o1 (stereo not given)
inhibition: 6.203%

3 of the entries, repeated:

{"compound": "c1coc(-c2nnc(CN3CCCC3Cn3cncn3)o2)c1", "stereo": "stereo not given", "inhibition": 17.61}
{"compound": "COc1ncccc1NC(=O)N1CCOCC1C", "stereo": "stereo not given", "inhibition": 8.052}
{"compound": "OC1CCN(C2CCN(Cc3cnc(-c4cccs4)nc3)CC2)CC1", "inhibition": 11.87}

Measurements from “University of Dundee, Small-Polar-MMV Screening Library” (2021), ChEMBL document CHEMBL3988442.